Test results: patent US12391701B2, “Chromene-based compounds, methods and uses thereof” (University of Minho, priority 2019, dated 2025)

Key:
[1] = test system: TNBC cell line MDA-MB-231; experiment: Cell viability assay, MDA-MB-231; type: cell-based; conditions: selectivity index
[2] = test system: renal carcinoma cell line A498; experiment: Cell viability (sulforhodamine B), A498; type: cell-based; conditions: selectivity index
Description: (§1) In an embodiment, the antiproliferative activity of the compounds was further determined against renal carcinoma cell lines and non-neoplastic kidney cell line.
(§2) In an embodiment, three human breast cancer cell lines Hs578T, MDA-MB-468 and MCF-7, and a normal breast cell line MCF-10A, were obtained from ATCC (American Type Culture Collection). The cancer cell lines were cultured in Dulbecco's modified Eagle medium, 4.5 g/l glucose (DMEM, Gibco) supplemented with 10% heating inactivated Fetal Bovine Serum (FBS, Gibco) and 1% antibiotic solution (Penicillin-Streptomycin, Gibco). The normal cell line was cultured in Dulbecco's Modified Eagle Medium: Nutrient Mixture F-12 (DMEM/F12, Gibco) supplemented with 5% heating inactivated FBS (Gibco), 1% antibiotic solution (Penicillin-Streptomycin, Gibco), 1% steroid hormone (Hydrocortisone, Sigma-Aldrich), 0.1% peptide hormone (Insulin, Sigma-Aldrich) and 0.01% protein complex (Cholera Toxin, Gibco). Two distinct human acute myeloid leukemia (AML) cell lines, HL-60 (FAB M2) and KG-1 (erythroleukemia-FAB M6), and one human lymphoblastic leukemia (ALL) cell line, Jurkat (T cell type), were also used. These three cell lines were obtained from German Collection of Microorganisms and Cell cultures (DMSZ®, Deutsche Sammlung von Mikroorganismen and Zellkulturen in German). Cells were cultured in RPMI 1640 medium (Biochrom®-Merck Millipore) supplemented with 10% heating inactivated FBS (Biochrom®-Merck Millipore) and 1% antibiotic/antimitotic mixture (Invitrogen®). Three human glioblastoma (GBM) cell line models, two established and commercially available cell lines (U87MG and GAMG, kind gift from Rui M. Reis) and one primary GBM culture (GLIB) were also used. GBM cells were cultures in DMEM (Biochrom-Merck Millipore), all supplemented with 10% FBS. The Renal cell carcinoma cell lines A498, 786-O, Caki-2 and HK2 were obtained from ATCC. The cancer cell line A498 was cultured in MEM medium (Biochrom®-Merck Millipore), 786-O was cultured in RPMI 1640 medium (Biochrom®-Merck Millipore), Caki-2 was cultured in Mc Coys medium (Biochrom®-Merck Millipore) and HK2 was cultured in RPMI 1640 medium (Biochrom®-Merck Millipore). All the media were supplemented with 10% heat inactivated FBS (Biochrom®-Merck Millipore) and 1% antibiotic/antimitotic mixture (Invitrogen®). All cells were grown in a humidified incubator at 37° C. and 5% CO2. For all assays, DMSO (Dimethyl Sulfoxide, Sigma-Aldrich) controls were used.
(§3) In an embodiment, cell viability assays were performed. MCF-7, Hs578T and MCF-10A cells were plated in triplicate in 96-multiwell culture plates, at 3000 cells per mL, or 5000 cells per mL for MDA-MB-468 (100 μL/well). The cells were then allowed to adhere in complete medium, over a period of 18-20 hours. Cells were subsequently treated with 7 different concentrations (from 0.1 to 40 μM or 5 to 60 μM) of compounds or control in fresh medium. HL-60, KG-1 and Jurkat cell lines were plated in 96-multiwell culture plates at 50.000 cells/100 μL per well and treated with different concentrations (from 0.001 to 2 μM) of the compounds described (or control). Cells were plated, in triplicate, at an initial density of 2000 cells/well for GAMG, 4000 cells/well for GL18 and 6000 cells/well for U87MG, in 96-well plates, and allowed to adhere for 18-20 hours. Cells were then treated with different concentrations of the compounds (0.005 to 100 μM) or with control. A498 and 786-O cells were plated at 2000 cells per mL, Caki-2 cells were plated at 3000 cells per mL and HK2 cells were plated at 2000 cells per mL in triplicate, in 96-multiwell culture plates (100 μL/well), and allowed to adhere over a period of 18-20 hours in complete medium. The cells were then treated with 7 different concentrations (from 0.1 to 40 μM or 5 to 60 μM) of compounds or control in fresh medium. […]

[3] = test system: renal carcinoma cell line 786-O; experiment: Cell viability (sulforhodamine B), 786-O; type: cell-based; conditions: selectivity index
Description: as §1, §2, §3

[4] = test system: renal carcinoma cell line Caki-2; experiment: Cell viability (sulforhodamine B), Caki-2; type: cell-based; conditions: selectivity index
Description: as §1, §2, §3

[5] = test system: TNBC cell line MDA-MB-468; experiment: Cell viability assay (MTS), MDA-MB-468; type: cell-based, human; conditions: selectivity index
Excerpt: (§4) In an embodiment, for a comparison study, monomers and respective dimers were selected and further evaluated in Hs578t and MDA-MB-468 breast cell lines. […] These cell lines correspond to the basal-like subtype of breast cancer, included in the known triple negative subtype, since they are negative for Estrogen receptor (ER), progesterone receptor (PR) and Human epidermal growth factor receptor 2 (HER2) molecular markers. The clinical behaviour of these breast cancer subtype is very aggressive and there is still no specific molecular therapy available.
as §2, with “For all assays, DMSO (Dimethyl Sulfoxide, Sigma-Aldrich) controls were used.” left out

[6] = test system: breast cancer cell line MCF-7; experiment: Cell viability assay (MTS), MCF-7; type: cell-based, human; conditions: selectivity index MCF-10A vs MCF-7; SI=(IC50 normal−IC50 cancer)/IC50 cancer
Description: In an embodiment, the cell growth inhibition and IC50 values of the synthesised and isolated chromene-based compounds were determined as part of the evaluation of the antiproliferative activity of the isolated agents. A complete study on the structure-activity relationship was performed for all the synthesised compounds. The antiproliferative activity against MCF-7 breast cancer cell lines were analysed. […] The non-neoplastic cell line MCF-10A was also used to determine the selectivity of the compounds for the tumour cells. For compounds with an IC50 value (concentration required to reduce cell viability by 50%) higher than 20 μM, the IC50 value was not determined. Selectivity index (SI) was calculated in order to evaluate the cytotoxicity of the tested compounds.
as §2
In an embodiment, cell viability assays were performed. MCF-7, Hs578T and MCF-10A cells were plated in triplicate in 96-multiwell culture plates, at 3000 cells […], or 5000 cells […] for MDA-MB-468 (100 μL/well). The cells were then allowed to adhere in complete medium, over a period of 18-20 hours. Cells were subsequently treated with 7 different concentrations (from 0.1 to 40 μM or 5 to 60 μM) of compounds or control in fresh medium. HL-60, KG-1 and Jurkat cell lines were plated in 96-multiwell culture plates at 50.000 cells/100 μL per well and treated with different concentrations (from 0.001 to 2 μM) of the compounds described (or control). Cells were plated, in triplicate, at an initial density of 2000 cells/well for GAMG, 4000 cells/well for GL18 and 6000 cells/well for U87MG, in 96-well plates, and allowed to adhere for 18-20 hours. […]

[7] = test system: TNBC cell line Hs578t; experiment: Cell viability assay (MTS), Hs578t; type: cell-based, human; conditions: selectivity index
Excerpt: as §4, §2
In an embodiment, cell viability assays were performed. MCF-7, Hs578T and MCF-10A cells were plated in triplicate in 96-multiwell culture plates, at 3000 cells […], or 5000 cells […] for MDA-MB-468 (100 μL/well). The cells were then allowed to adhere in complete medium, over a period of 18-20 hours. Cells were subsequently treated with 7 different concentrations (from 0.1 to 40 μM or 5 to 60 μM) of compounds or control in fresh medium. HL-60, KG-1 and Jurkat cell lines were plated in 96-multiwell culture plates at 50.000 cells/100 μL per well and treated with different concentrations (from 0.001 to 2 μM) of the compounds described (or control). Cells were plated, in triplicate, at an initial density of 2000 cells/well for GAMG, 4000 cells/well for GL18 and 6000 cells/well for U87MG, in 96-well plates, and allowed to adhere for 18-20 hours. Cells were then treated with different concentrations of the compounds (0.005 to 100 μM) or with control. […]

COc1cccc2c1Oc1nc(-c3ccc(Br)cc3)[nH]c1C2C1c2cccc(OC)c2Oc2nc(-c3ccc(Br)cc3)[nH]c21 (stereo not drawn) [MC421, 2,2′-bis(4-bromophenyl)-5,5′-dimethoxy-1,1,9,9′-tetrahydro-9,9′-bichromeno[2,3-]imidazoles]
SI MDA-MB-231 vs MCF-10A [1]: >9 | SI HK2 vs A498 [2]: 6.36 | SI HK2 vs 786-O [3]: 31.33 | SI HK2 vs Caki-2 [4]: 4.78 | SI MDA-MB-468 vs MCF-10A [5]: >67 | SI [6]: >96 | SI Hs578t vs MCF-10A [7]: >850

COc1cccc2c1Oc1nc(-c3ccc(F)cc3)[nH]c1C2 [MC409, 2-(4-fluorophenyl)-5-methoxy-3,9-dihydrochromeno[2,3-d]imidazoles]
SI MDA-MB-231 vs MCF-10A [1]: 4.3 | SI HK2 vs A498 [2]: 5.23 | SI HK2 vs 786-O [3]: 6.04 | SI HK2 vs Caki-2 [4]: 8.70 | SI MDA-MB-468 vs MCF-10A [5]: 118.0 | SI [6]: 21.0 | SI Hs578t vs MCF-10A [7]: 51.8

COc1cccc2c1Oc1nc(-c3ccc(F)cc3)[nH]c1C2C1c2cccc(OC)c2Oc2nc(-c3ccc(F)cc3)[nH]c21 (stereo not drawn) [MC406, 2,2′-bis(4-fluorophenyl)-5,5′-dimethoxy-1,1,9,9′-tetrahydro-9,9′-bichromeno[2,3-]imidazoles]
SI MDA-MB-231 vs MCF-10A [1]: 38.9 | SI HK2 vs A498 [2]: ns | SI HK2 vs 786-O [3]: 2.69 | SI HK2 vs Caki-2 [4]: 0.74 | SI MDA-MB-468 vs MCF-10A [5]: 38.7 | SI [6]: 62.6 | SI Hs578t vs MCF-10A [7]: 238.8
